These results are taken from PMC12603276.

By UniProt entry, the sequences of proteins in these tests, tags left out.
UniProt P00558: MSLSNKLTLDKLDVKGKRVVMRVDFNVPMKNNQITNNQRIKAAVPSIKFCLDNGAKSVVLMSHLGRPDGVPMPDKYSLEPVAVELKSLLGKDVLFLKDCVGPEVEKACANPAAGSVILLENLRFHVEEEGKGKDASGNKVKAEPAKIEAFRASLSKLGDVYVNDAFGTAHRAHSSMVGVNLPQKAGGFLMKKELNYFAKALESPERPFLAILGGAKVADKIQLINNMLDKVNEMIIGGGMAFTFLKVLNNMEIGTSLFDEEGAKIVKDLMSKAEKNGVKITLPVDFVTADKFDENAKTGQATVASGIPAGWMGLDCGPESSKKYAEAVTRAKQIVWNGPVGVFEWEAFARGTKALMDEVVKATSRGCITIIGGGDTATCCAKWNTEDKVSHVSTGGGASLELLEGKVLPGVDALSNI

In this experiment the target is phosphoglycerate kinase 1 (PGK1), endogenous (human (endogenous in PANC-1 and AsPC-1)) (UniProt P00558). Kind of experiment: affinity purification with mass spectrometry; PGK1 immunoprecipitated with an anti-PGK1 antibody from PANC-1 cells collected 30 min after IR; immunoprecipitates analysed by mass spectrometry.

No constants are given. Whether binding was seen depends on the method and setting. In cells and extracts the contact can be indirect. Here binding means that the protein was enriched with, or labelled near, the bait; the list need not be complete.

B1: microrchidia CW-type zinc finger 2 (MORC2), endogenous (enzyme, UniProt Q9Y6X9 1-1032)
chain: MAFTNYSSLNRAQLTFEYLHTNSTTHEFLFGALAELVDNARDADATRIDIYAERREDLRGGFMLCFLDDGAGMDPSDAASVIQFGKSAKRTPESTQIGQYGNGLKSGSMRIGKDFILFTKKEDTMTCLFLSRTFHEEEGIDEVIVPLPTWNARTREPVTDNVEKFAIETELIYKYSPFRTEEEVMTQFMKIPGDSGTLVIIFNLKLMDNGEPELDIISNPRDIQMAETSPEGTKPERRSFRAYAAVLYIDPRMRIFIHGHKVQTKRLSCCLYKPRMYKYTSSRFKTRAEQEVKKAEHVARIAEEKAREAESKARTLEVRLGGDLTRDSRVMLRQVQNRAITLRREADVKKRIKEAKQRALKEPKELNFVFGVNIEHRDLDGMFIYNCSRLIKMYEKVGPQLEGGMACGGVVGVVDVPYLVLEPTHNKQDFADAKEYRHLLRAMGEHLAQYWKDIAIAQRGIIKFWDEFGYLSANWNQPPSSELRYKRRRAMEIPTTIQCDLCLKWRTLPFQLSSVEKDYPDTWVCSMNPDPEQDRCEASEQKQKVPLGTFRKDMKTQEEKQKQLTEKIRQQQEKLEALQKTTPIRSQADLKKLPLEVTTRPSTEEPVRRPQRPRSPPLPAVIRNAPSRPPSLPTPRPASQPRKAPVISSTPKLPALAAREEASTSRLLQPPEAPRKPANTLVKTASRPAPLVQQLSPSLLPNSKSPREVPSPKVIKTPVVKKTESPIKLSPATPSRKRSVAVSDEEEVEEEAERRKERCKRGRFVVKEEKKDSNELSDSAGEEDSADLKRAQKDKGLHVEVRVNREWYTGRVTAVEVGKHVVRWKVKFDYVPTDTTPRDRWVEKGSEDVRLMKPPSPEHQSLDTQQEGGEEEVGPVAQQAIAVAEPSTSECLRIEPDTTALSTNHETIDLLVQILRNCLRYFLPPSFPISKKQLSAMNSDELISFPLKEYFKQYEVGLQNLCNSYQSRADSRAKASEESLRTSERKLRETEEKLQKLRTNIVALLQKVQEDIDINTDDELDAYIEDLITKGD
Take B1: the binding entry was “binds”.
